For 42 sequences, binding signal results are on record in PMC7819943, “Rice protein-binding microarrays: a tool to detect cis-acting elements near promoter regions in rice”.

The list shows a part of the results.

This assay has as its target T1, OsSMF1 (Oryza sativa, UniProt Q6ZLB0 1-436).
T1 sequence: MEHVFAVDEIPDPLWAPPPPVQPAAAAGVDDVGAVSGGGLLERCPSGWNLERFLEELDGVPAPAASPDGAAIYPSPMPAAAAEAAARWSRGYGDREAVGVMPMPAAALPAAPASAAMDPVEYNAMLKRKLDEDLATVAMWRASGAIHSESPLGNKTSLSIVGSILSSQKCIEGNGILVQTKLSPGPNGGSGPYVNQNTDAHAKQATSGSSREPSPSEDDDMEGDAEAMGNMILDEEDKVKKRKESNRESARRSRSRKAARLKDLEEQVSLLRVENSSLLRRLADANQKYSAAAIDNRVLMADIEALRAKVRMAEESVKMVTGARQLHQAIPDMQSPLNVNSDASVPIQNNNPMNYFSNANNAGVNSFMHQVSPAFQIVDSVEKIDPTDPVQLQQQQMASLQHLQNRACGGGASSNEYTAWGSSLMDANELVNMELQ
Briefly: protein-binding microarray (RPBM); PBS, 2% BSA, 51.3 ng/ul salmon testes DNA, 50 uM zinc acetate, 200 nM TF, 25 C, 1 h; high values mean tight binding. The conditions noted are these: protein: recombinant; tags: N-terminal polyhistidine and DsRed monomer fusion (pET32a); chain copies: 2; label: CyDye5-dUTP incorporated in the synthesized complementary strand; 3' TTTTT single-stranded linker to array surface; dsDNA, one strand shown. Summed up: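 Polyhistidine-tagged DsRed fusions of transcription factors, joined at the N-terminus, were expressed in E. coli BL21-CodonPlus and isolated on Ni–NTA. They were incubated at 200 nM for 1 h at 25 °C on a custom Agilent array, double-stranded and BSA-blocked, in PBS with 2% BSA, salmon testes DNA and 50 µM zinc acetate. The binding signal is per-feature fluorescence intensity (arbitrary units) read on an Axon 4000B scanner after washing.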
In the case of “TTCGACGTATTGCCCTCGTGCGGACCGCACCGTTTCCTTGCGGAGTCACCTAGTGCAG”, the binding signal was 18700 fluorescence intensity (a.u.). On to “GGCCCTAGCAACTTGCAAGTGGGGCGCTGACACTGCAACACGGAGTCACCTAGTGCAG”, for which the binding signal is 5640 fluorescence intensity (a.u.). Next, “ATTTCATTTCACTCATCCCACATGACACATACGCGTAGGTCGGAGTCACCTAGTGCAG”: 3670 fluorescence intensity (a.u.); “TTGCTAATTCCACACGTCAGCTAGGACAAGTGAGCATCGCCGGAGTCACCTAGTGCAG”: 13100 fluorescence intensity (a.u.); “TACGGAGGATACGTACGTGACGCGTCGGAAACCTTACGGCCGGAGTCACCTAGTGCAG”: 7710 fluorescence intensity (a.u.).

For the sequence “ATTTTCTATAATTACGTATATGCCCCACACGAACAGTATTCGGAGTCACCTAGTGCAG”, the binding signal was 3700 fluorescence intensity (a.u.). Next, “TTTTGCGGACTTGCTCTGATTTTGGGAAATGGAAAGAGGACGGAGTCACCTAGTGCAG”: 25200 fluorescence intensity (a.u.); “ATTGTTAACTCATGTTGTTGCTCAAATAAACAAAAGTTAACGGAGTCACCTAGTGCAG”: 28500 fluorescence intensity (a.u.); “ATCCATCTTCGTGACAGCTCCGAGCTTTCTCCTGGTTATTCGGAGTCACCTAGTGCAG”: 3510 fluorescence intensity (a.u.). As to “AGAACGTGTGTGTGCCTCTCGAGTCACGAGCTGCTGTACACGGAGTCACCTAGTGCAG”, the binding signal is 3730 fluorescence intensity (a.u.). Consider “CGTGGCACTTAGCGATGAGTGCTGTCGTCAGTAGCAATCCCGGAGTCACCTAGTGCAG”, for which the binding signal is 4620 fluorescence intensity (a.u.). Next, “ATCGGGCCGTCCATCCATCTCGCGTCACACGGTCCACCACCGGAGTCACCTAGTGCAG”: 4050 fluorescence intensity (a.u.). Turning to “TTTATAATAATTGTAAGTTGTCAGTCCACGTAATTGGAGCCGGAGTCACCTAGTGCAG”, the binding signal was 7460 fluorescence intensity (a.u.). “GTTCTTTTCGCTATGATGACGCCAATGGAGCTACGAAGTACGGAGTCACCTAGTGCAG”: the binding signal is 3750 fluorescence intensity (a.u.). In the case of “CTACACGGGTCCGGTCACCGCGTCTCGTCGTCGTGGCTTGCGGAGTCACCTAGTGCAG”, the binding signal was 4170 fluorescence intensity (a.u.). Turning to “CAAGACAGAATGGAAAAGACGACACATCACCTCTTTTGCACGGAGTCACCTAGTGCAG”, the binding signal was 5560 fluorescence intensity (a.u.). For the sequence “CACCCACTGACACGTGGTCCCCACCCACCCCACCTGTCCCCGGAGTCACCTAGTGCAG”, the binding signal was 12900 fluorescence intensity (a.u.). Regarding “TTTCTAGCATATGAATGTGGGCAATGCTAGAAAGTCTTATCGGAGTCACCTAGTGCAG”, the binding signal was 3980 fluorescence intensity (a.u.).

Consider “AACTTGCTCGAACTCTCTTTCTCACGTGTGTTCATGGGCCCGGAGTCACCTAGTGCAG”, for which the binding signal was 3840 fluorescence intensity (a.u.). As for “CTCATTTGGATCGCACAGAAAGAATGGCTGAGAGCCAGACCGGAGTCACCTAGTGCAG”, the binding signal is 28300 fluorescence intensity (a.u.). Consider “ATGCACAAATGCACGATGCACAACCCTCCCGGTCTCTCCCCGGAGTCACCTAGTGCAG”, for which the binding signal is 3220 fluorescence intensity (a.u.). “TGTGGGTTGGAGGGAGGAGGGGATTGAAGGGTTGTTAATTCGGAGTCACCTAGTGCAG”: the binding signal is 4650 fluorescence intensity (a.u.).

For the sequence “GTCTTATAATATGAAACGGATGAAGTATTAGATAGCCGAACGGAGTCACCTAGTGCAG”, the binding signal was 3300 fluorescence intensity (a.u.). Next, “GACCCTTCGCGAGTTCGATGCTCCCTCGCTGACAACATGCCGGAGTCACCTAGTGCAG”: 4000 fluorescence intensity (a.u.); “TCAGTTGGGAGTGTGAGCTGATTCATCAGCAACTCGTAGCCGGAGTCACCTAGTGCAG”: 4250 fluorescence intensity (a.u.). Take “GGGCGACCCGTCACGCGTGCGTGCGTGCGTGCGTGCTCGCCGGAGTCACCTAGTGCAG”: the binding signal was 6010 fluorescence intensity (a.u.). Consider “ACCTGTCATGCTGACGTAGCACCTGACGAGGCCTGGCCCACGGAGTCACCTAGTGCAG”, for which the binding signal was 26500 fluorescence intensity (a.u.). Next, “CGCCGTCACGCACCCACGCACGCACGCACGCACGCATATACGGAGTCACCTAGTGCAG”: 3640 fluorescence intensity (a.u.); “CAAAAGGGAACCAGCTGTCGCGATACAGCAGGTGGGAGGACGGAGTCACCTAGTGCAG”: 12200 fluorescence intensity (a.u.). For the sequence “ACTGACGTGACGTGTCGCTTACGTGGCTAATTTAACTATGCGGAGTCACCTAGTGCAG”, the binding signal was 34000 fluorescence intensity (a.u.). Turning to “AAACTCTCACTCGCTCACTCACACCTCACACGCTGCTGCTCGGAGTCACCTAGTGCAG”, the binding signal is 3730 fluorescence intensity (a.u.). For “AAGAAAATCTCCTGTCTCAGTCTCCTCCGCTCCTTGCGCCCGGAGTCACCTAGTGCAG”, the binding signal was 54400 fluorescence intensity (a.u.).

Take “CGCCCCTGCGCCGCCTCCTCCGCGTCGACGCCCTCGTCCTCGGAGTCACCTAGTGCAG”: the binding signal was 3140 fluorescence intensity (a.u.).

For “GCTACACTTGTCCTCATTTACCAACACACAAGCTCTCCCTCGGAGTCACCTAGTGCAG”, the binding signal is 3200 fluorescence intensity (a.u.). “GCTTGGAGTGTAGAGAGTGGTATGATTCGAAAATTAGCTGCGGAGTCACCTAGTGCAG”: the binding signal is 3150 fluorescence intensity (a.u.). Take “TGGCAACGTACGTCAACGGTCGTCCGTGGTATTCTTATTACGGAGTCACCTAGTGCAG”: the binding signal was 3430 fluorescence intensity (a.u.). Regarding “GCCGTGGCGCGTCGCCGGCCGACCTCCCGGCCTGGCGGCCCGGAGTCACCTAGTGCAG”, the binding signal is 5160 fluorescence intensity (a.u.). As for “CACTGGTGATGCAGTGTCGGCGGATGATAACAAACGTGTGCGGAGTCACCTAGTGCAG”, the binding signal was 3240 fluorescence intensity (a.u.). For “AAGAGGGAGGGGAGGGTTCGCGAACCAGTAGAAAACGGCTCGGAGTCACCTAGTGCAG”, the binding signal is 3390 fluorescence intensity (a.u.). As to “CATCTAATTGCCACATAAGCGCCACGTCAACGACACGTTGCGGAGTCACCTAGTGCAG”, the binding signal is 41300 fluorescence intensity (a.u.). For the sequence “ATCACCACTTCGTCCAGGGCCTACGCACCAAATCACAATCCGGAGTCACCTAGTGCAG”, the binding signal is 3330 fluorescence intensity (a.u.). As for “TAGGAATAGGATTGGGGTGCCAGCGCGGCAGCAGCAAACCCGGAGTCACCTAGTGCAG”, the binding signal is 5080 fluorescence intensity (a.u.).
